# Laboratory results taken from the supplement of paper PMC4749390.
# Structures can show the parent of a compound that is named as a salt. This is one part of the list. This data set is noisy: repeats of one test often differ as much as different tests do.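 JEG3 cells stably carry tetracycline-induced wild-type human LRH-1, a heavily sumoylated nuclear receptor. APOC3 and MUC1 are SUMO-sensitive transcripts, raised by SUMO-less LRH-1 or UBC9 knockdown, measured by RT-qPCR against TBP and DMSO controls. A robust Z-score above +2 or below -2 marked a primary hit before toxicity and TBP filtering.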
# System: JEG3 expressing hLRH-1
# Assay: APOC3 transcript change (ddCt vs TBP and DMSO), Z-score over library; higher = higher APOC3 expression
# Settings: 10 µM; time (hr): 24
row,Compound,APOC3 transcript change (Z-score)
1,OC(CCN1CCCC1)(c1ccccc1)C1CCCCC1 (configuration not stated) [procyclidine hydrochloride],0.459
2,Nc1nc(O)c2c(CCc3ccc(C(=O)N[C@@H](CCC(=O)O)C(=O)O)cc3)c[nH]c2n1 [pemetrexed],1.01
3,O=C(/C=C/C=C/c1ccc2c(c1)OCO2)N1CCCCC1 [piperine],-0.386
4,C[N+]1(C)C2CC[C@H]1C[C@@H](OC(=O)C(O)c1ccccc1)C2 (some centres not stated) [homatropine methylbromide],-0.277
5,O=C1C(CCS(=O)c2ccccc2)C(=O)N(c2ccccc2)N1c1ccccc1 (configuration not stated) [sulfinpyrazone],-1.24
6,C[N+](C)(C)CC(=O)O [betaine hydrochloride],0.513
7,CC1(C)NC(=O)N(c2ccc([N+](=O)[O-])c(C(F)(F)F)c2)C1=O [nilutamide],-0.876
8,Fc1ccc(C(c2ccc(F)cc2)N2CCN(C/C=C/c3ccccc3)CC2)cc1 [Flunarizine dihydrochloride],-0.143
9,CC(=O)OC(C)C[N+](C)(C)C (configuration not stated) [methacholine chloride],0.248
10,C[C@]12CC[C@@H]3c4ccc(OC(=O)c5ccccc5)cc4CC[C@H]3[C@@H]1CC[C@@H]2O [estradiol benzoate],0.22
11,CS(=O)(=O)c1ccc(C2=C(c3ccccc3)C(=O)OC2)cc1 [rofecoxib],0.00484
12,CC(=O)NCCCS(=O)(=O)[O-]->[Ca+2]<-[O-]S(=O)(=O)CCCNC(C)=O [acamprosate calcium],0.316
13,O=C(NCc1ccccc1)OCCO [buramate],-0.0503
14,N=C(N)/N=C(\N)NCCc1ccccc1 [phenformin hydrochloride],-0.885
15,COC(=O)/C=C/C(=O)OC [dimethyl fumarate],0.545
16,OC(CNCC(O)C1CCc2cc(F)ccc2O1)C1CCc2cc(F)ccc2O1 (configuration not stated) [nebivolol hydrochloride],0.335
17,Cc1cc(C(C)(C)CC(C)(C)C)cc(Cc2cc(C(C)(C)CC(C)(C)C)cc(Cc3cc(C(C)(C)CC(C)(C)C)ccc3OCCO)c2OCCO)c1OCCO [tyloxapol],0.14
18,N[C@@H](Cc1cc(I)c(Oc2ccc(O)c(I)c2)c(I)c1)C(=O)O [liothyronine sodium],-1.32
19,CCN(CC)C(=O)C1(c2ccccc2)CC1CN (configuration not stated) [milnacipran hydrochloride],0.544
20,S=P(N1CC1)(N1CC1)N1CC1 [thiotepa],-0.0906
21,CN(C)CCCN1c2ccccc2Sc2ccc(C(F)(F)F)cc21 [triflupromazine hydrochloride],0.991
22,CCC(C)C(N)C1=NC(C(=O)NC(CC(C)C)C(=O)NC(CCC(=O)O)C(=O)NC(C(=O)NCCCCC2NC(=O)C(CC(N)=O)NC(=O)C(CC(=O)O)NC(=O)C(Cc3c[nH]cn3)NC(=O)C(Cc3ccccc3)NC(=O)C(C(C)CC)NC(=O)C(CCCN)NC2=O)C(C)CC)CS1 (configuration not stated) [bacitracin],0.496
23,CC(=O)Oc1ccc(C(c2ccc(OC(C)=O)cc2)c2ccccn2)cc1 [bisacodyl],0.971
24,O=C(O)c1ccccc1Nc1cccc(C(F)(F)F)c1 [flufenamic acid],-0.0411

row,Compound,APOC3 transcript change (Z-score)
1,Nc1nc2ccc(OC(F)(F)F)cc2s1 [Riluzole],-0.481
2,CN(C)N=Nc1[nH]cnc1C(N)=O [dacarbazine],0.582
3,C=Cc1c(C)c2[n]3c1C=C1C(C)=C(CC)C4=[N+]1[Cu]31[n]3c(c(C)c(C(=O)O)c3=C(CC(=O)O)C3=[N+]1C(=C2)C(C)C3CCC(=O)O)=C4 (configuration not stated) [chlorophyllide cu complex na salt],0.131
4,Nc1ccc(S(=O)(=O)Nc2cnc3ccccc3n2)cc1 [sulfaquinoxaline sodium],-0.694
5,OC[C@H]1O[C@H](O[C@]2(CCl)O[C@H](CCl)[C@@H](O)[C@@H]2O)[C@H](O)[C@@H](O)[C@H]1Cl [sucralose],-0.168
6,CN(C)CC[C@@H](c1ccc(Cl)cc1)c1ccccn1 [dexchlorpheniramine maleate],-0.1
7,C[C@H]1OC(n2cc(F)c(=O)[nH]c2=O)C(O)[C@@H]1O (some centres not stated) [5-fluoro-5'-deoxyuridine],-0.103
8,Cc1ccc(-c2cc(C(F)(F)F)nn2-c2ccc(S(N)(=O)=O)cc2)cc1 [celecoxib],-0.341
9,Clc1ccc(CCC(Cn2ccnc2)Sc2c(Cl)cccc2Cl)cc1 (configuration not stated) [butoconazole],0.0427
10,CCOC(=O)O[C@]1(C(=O)COC(=O)CC)CC[C@H]2[C@@H]3CCC4=CC(=O)C=C[C@]4(C)[C@H]3[C@@H](O)C[C@@]21C [prednicarbate],0.131
11,COc1ccc2c(c1OC)C(=O)O[C@@H]2[C@H]1c2c(cc3c(c2OC)OCO3)CCN1C [noscapine hydrochloride],0.205
12,CNC[C@H](O)c1ccc(O)c(O)c1 [adrenaline bitartrate],-0.533
13,O=C(O)CCCCCCCC(=O)O [azelaic acid],-0.144
14,CC(S)C(=O)NCC(=O)O (configuration not stated) [tiopronin],-0.772
15,CCN(CC)C(C)CN1c2ccccc2Sc2ccccc21 (configuration not stated) [ethopropazine hydrochloride],0.433
16,CC(=O)NS(=O)(=O)c1ccc(NC(=O)c2ccccc2C(=O)O)cc1 [phthalylsulfacetamide],-0.489
17,NC[C@H]1O[C@H](O[C@H]2[C@H](O)[C@@H](O[C@H]3O[C@H](CO)[C@@H](O)[C@H](N)[C@H]3O)[C@H](N)C[C@@H]2N)[C@H](N)[C@@H](O)[C@@H]1O [becanamycin sulfate],-0.0019
18,Oc1c(I)cc(Cl)c2cccnc12 [clioquinol],0.336
19,C[N+](C)(C)CCO [choline chloride],-0.436
20,Cc1cc(CC(C)CC(C)(C)C)n(O)c(=O)c1.NCCO (configuration not stated) [piroctone olamine],2.46
21,C#C[C@]1(O)CCC2C3CCC4=CC(=O)CC[C@@H]4C3CCC21CC (some centres not stated) [norgestrel],0.836
22,CO[C@@H]1[C@@H](OC(N)=O)[C@@H](O)[C@H](Oc2ccc3c(O)c(NC(=O)c4ccc(O)c(CC=C(C)C)c4)c(=O)oc3c2C)OC1(C)C [novobiocin sodium],0.665
23,COc1ccccc1OCC(O)CO (configuration not stated) [guaifenesin],-0.258
24,CC[C@]1(O)C[C@H]2CN(CCc3c([nH]c4ccccc34)[C@@](C(=O)OC)(c3cc4c(cc3OC)N(C=O)[C@H]3[C@@](O)(C(=O)OC)[C@H](OC(C)=O)[C@]5(CC)C=CCN6CC[C@]43[C@@H]65)C2)C1 [vincristine sulfate],-3.6

# Two compounds drawn at random from those above:
row,Compound,APOC3 transcript change (Z-score)
22,CO[C@@H]1[C@@H](OC(N)=O)[C@@H](O)[C@H](Oc2ccc3c(O)c(NC(=O)c4ccc(O)c(CC=C(C)C)c4)c(=O)oc3c2C)OC1(C)C [novobiocin sodium],0.665
7,C[C@H]1OC(n2cc(F)c(=O)[nH]c2=O)C(O)[C@@H]1O (some centres not stated) [5-fluoro-5'-deoxyuridine],-0.103

# Given with tabs: entries from further up.
row	Compound	APOC3 transcript change (Z-score)
18	Oc1c(I)cc(Cl)c2cccnc12 [clioquinol]	0.336
19	C[N+](C)(C)CCO [choline chloride]	-0.436

# The results go on:

row,Compound,APOC3 transcript change (Z-score)
1,NC[C@@H]1O[C@H](O[C@H]2[C@@H](O)[C@H](O[C@@H]3[C@@H](O)[C@H](N)C[C@H](N)[C@H]3O[C@H]3O[C@H](CO)[C@@H](O)[C@H](O)[C@H]3N)O[C@@H]2CO)[C@H](N)[C@@H](O)[C@@H]1O [paromomycin sulfate],-0.09
2,CN(C)CCCN1c2ccccc2CCc2ccc(Cl)cc21 [Clomipramine hydrochloride],0.151
3,CN(N=O)C(=O)N[C@@H]1[C@@H](O)[C@H](O)[C@@H](CO)O[C@@H]1O [streptozosin],0.469
4,CC/C(=C(/CC)c1ccc(O)cc1)c1ccc(O)cc1 [diethylstilbestrol],0.0929
5,COc1cc(C(=O)NCc2ccc(OCCN(C)C)cc2)cc(OC)c1OC [trimethobenzamide hydrochloride],-1.19
6,Cc1cc(C(C)(C)C)c(O)c(C)c1CC1=NCCN1 [Oxymetazoline hydrochloride],0.301
7,CO/N=C(\C(=O)N[C@@H]1C(=O)N2C(C(=O)O)=C(CSc3nnnn3C)CS[C@H]12)c1csc(N)n1 [cefmenoxime hydrochloride],-0.937
8,CC(=O)O[C@H]1CC2CCC3C(CC[C@@]4(C)C3C[C@H]([N+]3(C)CCCCC3)[C@@H]4OC(C)=O)[C@@]2(C)C[C@@H]1N1CCCCC1 (some centres not stated) [vecuronium bromide],0.831
9,CNNCc1ccc(C(=O)NC(C)C)cc1 [procarbazine hydrochloride],-1.07
10,CC1=C(C(=O)O)N2C(=O)[C@@H](NC(=O)[C@H](N)C3=CCC=CC3)C2SC1 (some centres not stated) [cephradine],1.02
11,C[C@H]1O[C@@H](O[C@H]2[C@@H](O)C[C@H](O[C@H]3[C@@H](O)C[C@H](O[C@H]4CC[C@@]5(C)[C@H](CC[C@@H]6[C@@H]5C[C@@H](O)[C@]5(C)[C@@H](C7=CC(=O)OC7)CC[C@]65O)C4)O[C@@H]3C)O[C@@H]2C)C[C@H](O)[C@@H]1O [digoxin],-4.56
12,NCCCC[C@H](N[C@@H](CCc1ccccc1)C(=O)O)C(=O)N1CCC[C@H]1C(=O)O [lisinopril],0.409
13,CCN(CCCCOC(=O)c1ccc(OC)c(OC)c1)C(C)Cc1ccc(OC)cc1 (configuration not stated) [mebeverine hydrochloride],-0.457
14,O=C(N/N=C/c1ccc([N+](=O)[O-])o1)c1ccc(O)cc1 [nifuroxazide],-1.21
15,N=C(N)N1CCc2ccccc2C1 [Debrisoquin sulfate],-1.1
16,CCCCCCCCCCCCCCCCCCCCCCO [docosanol],1.77
17,COc1ccccc1N1CCN(CCCNc2cc(=O)n(C)c(=O)n2C)CC1 [Urapidil hydrochloride],-0.549
18,Cc1cc2c(s1)Nc1ccccc1N=C2N1CCN(C)CC1 [olanzapine],-0.00974
19,COc1ccc(O)cc1 [mequinol],0.54
20,NCCCC(=O)O,-1.06
21,COc1ccc2cc([C@H](C)C(=O)O)ccc2c1 [(+)naproxen],0.541
22,O=C(c1cccnc1)N1CCOCC1 [nicopholine],-0.776
23,CCn1cc(C(=O)O)c(=O)c2cc(F)c(N3CCNCC3)cc21 [norfloxacin],-0.26
24,O=S(=O)(O)NC1CCCCC1 [cyclamic acid],-0.215
